Laboratory results as given in paper PMC12406198, “Decadentate Acyclic Chelators for Lanthanum Radiopharmaceuticals” (Journal of Medicinal Chemistry, 2025).

Assay: Radiolabeling with [^135La]La^3+ (radio-TLC)
Conditions: for formation of stable complex with ^135La: 37 and/or 70 °C, pH 4.5
[1] = 3 μM ligand, 1 min, pH 4–5, room temperature
[2] = 3 μM ligand, 1 min, pH 4–5, room temperature, n = 6

NC12CNCCNCC(N)(CNCCNC1)CNCCNC2 [DiAmSar, 3,6,10,13,16,19-hexaazabicyclo[6.6.6]icosane-1,8-diamine]
formation of stable complex with ^135La: did not form stable complexes

O=C(O)c1cccc(CN(CCN(Cc2cccc(C(=O)O)n2)Cc2cccc(C(=O)O)n2)Cc2cccc(C(=O)O)n2)n1 [TPAEN^4–, N,N,N′N′-tetrakis[(6-carboxypyridin-2-yl)methyl]-ethylenediamine]
molar activity [1]: 299.4 MBq/nmol
radiochemical purity [2]: greater than 99%

O=C(O)CN(CCN(CC(=O)O)CC(=O)O)CC(=O)O [EDTA^4–, ethylenediamine-N,N,N′,N′-tetraacetic acid]
formation of stable complex with ^135La: did not form stable complexes

O=C(O)c1cccc(CN(Cc2cccc(C(=O)O)n2)[C@@H]2CCCC[C@H]2N(Cc2cccc(C(=O)O)n2)Cc2cccc(C(=O)O)n2)n1 [TPADAC^4–]
molar activity [1]: 326.8 MBq/nmol
radiochemical purity [2]: greater than 99%

O=C(O)CN1CCCN(CC(=O)O)CCN(CC(=O)O)CCCN(CC(=O)O)CC1 [H4TETA, 1,4,8,11-tetraazacyclotetradecane-1,4,8,11-tetraacetic acid]
formation of stable complex with ^135La: did not form stable complexes

O=C(O)CN1CCN(CC(=O)O)CCN(CC(=O)O)CC1 [H3NOTA, 2,2′,2″-(1,4,7-triazonane-1,4,7-triyl)triacetic acid]
formation of stable complex with ^135La: did not form stable complexes

O=C(O)CN1CCN(CC(=O)O)CCN(CC(=O)O)CCN(CC(=O)O)CC1 [H4DOTA, 1,4,7,10-tetraazacyclododecane-1,4,7,10-tetraacetic acid]
radiochemical purity (60 min at 70 °C, pH 4.5, n = 3): 97%

Some entries repeat one wording, which the source may state once for all of them.
